The text below walks through data of PMC6737903.

The chains behind the UniProt entries cited, without tags or fusion partners. Where a name states a change or a piece, a line headed by the entry shows the natural chain unless it says otherwise.
UniProt P23023: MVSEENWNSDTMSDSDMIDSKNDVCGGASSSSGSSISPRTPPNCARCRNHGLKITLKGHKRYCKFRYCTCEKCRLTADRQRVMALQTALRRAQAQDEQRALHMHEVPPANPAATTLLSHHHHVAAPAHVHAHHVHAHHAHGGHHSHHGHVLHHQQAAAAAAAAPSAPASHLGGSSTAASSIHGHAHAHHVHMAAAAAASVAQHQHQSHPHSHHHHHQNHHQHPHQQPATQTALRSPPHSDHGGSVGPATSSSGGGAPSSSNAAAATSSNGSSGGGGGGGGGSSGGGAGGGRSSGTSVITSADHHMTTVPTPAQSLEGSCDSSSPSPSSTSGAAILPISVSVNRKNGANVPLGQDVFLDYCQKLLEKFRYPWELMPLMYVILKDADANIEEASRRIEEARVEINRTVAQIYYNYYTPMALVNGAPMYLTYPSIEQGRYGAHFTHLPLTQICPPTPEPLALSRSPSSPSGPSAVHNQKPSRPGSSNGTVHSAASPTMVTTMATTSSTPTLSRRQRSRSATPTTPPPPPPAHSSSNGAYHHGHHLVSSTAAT

Results are given in words; binding and its absence hold for the method and conditions named. Binding seen in cells or lysates may run through a third protein. Some binding calls cover weakened binding; strength is not graded here.

What all share (assay): pull-down; GST pulldown: GST-tagged AbdB proteins or GST alone as bait; bacterially expressed His-tagged Dsx proteins as input cell lysates; Western blot; three repetitions; only the target purified
In general terms: Immunoblotting shows a protein as a band on a membrane.

Experiment [1] deals with GST-AbdB-N (truncated version of AbdB-r, aa residues 89-270) (Drosophila) (UniProt P09087).
Experiment [2] addresses GST-AbdB-ΔN (aa residues 162-270) (Drosophila) (UniProt P09087).
The target of experiment [3] is GST-AbdB-NΔCTD (aa residues 89-228) (Drosophila) (UniProt P09087).
Experiment [4] concerns the target GST-AbdB-HD (aa residues 162-228) (Drosophila) (UniProt P09087).

Turning to “DsxΔDD (aa residues 1-356) (from UniProt P23023 1-356) (domain or fragment)”, the binding result in experiment [1] is given as “binds”.
On the same count and under the same terms, in the case of “DsxΔN (aa residues 41-397) (from UniProt P23023 41-397) (domain or fragment)” it was “binds”.
For the substance “His-Dsx^CR (Dsx common region, aa residues 1-397) (from UniProt P23023 1-397) (domain or fragment)”, the binding entry in experiment [2], in experiment [3] and in experiment [4] was “binds” in each case.
